Data from patent US20190192636A1.
Results are given in words; binding and its absence hold for the method and conditions named. Some entries that bind do so weakly or less than the wild type.

Chains of the proteins cited; added tags and fusions are not shown. Lines headed by an entry give the natural chain unless they say otherwise; changes in a name come on top.
UniProt Q16787: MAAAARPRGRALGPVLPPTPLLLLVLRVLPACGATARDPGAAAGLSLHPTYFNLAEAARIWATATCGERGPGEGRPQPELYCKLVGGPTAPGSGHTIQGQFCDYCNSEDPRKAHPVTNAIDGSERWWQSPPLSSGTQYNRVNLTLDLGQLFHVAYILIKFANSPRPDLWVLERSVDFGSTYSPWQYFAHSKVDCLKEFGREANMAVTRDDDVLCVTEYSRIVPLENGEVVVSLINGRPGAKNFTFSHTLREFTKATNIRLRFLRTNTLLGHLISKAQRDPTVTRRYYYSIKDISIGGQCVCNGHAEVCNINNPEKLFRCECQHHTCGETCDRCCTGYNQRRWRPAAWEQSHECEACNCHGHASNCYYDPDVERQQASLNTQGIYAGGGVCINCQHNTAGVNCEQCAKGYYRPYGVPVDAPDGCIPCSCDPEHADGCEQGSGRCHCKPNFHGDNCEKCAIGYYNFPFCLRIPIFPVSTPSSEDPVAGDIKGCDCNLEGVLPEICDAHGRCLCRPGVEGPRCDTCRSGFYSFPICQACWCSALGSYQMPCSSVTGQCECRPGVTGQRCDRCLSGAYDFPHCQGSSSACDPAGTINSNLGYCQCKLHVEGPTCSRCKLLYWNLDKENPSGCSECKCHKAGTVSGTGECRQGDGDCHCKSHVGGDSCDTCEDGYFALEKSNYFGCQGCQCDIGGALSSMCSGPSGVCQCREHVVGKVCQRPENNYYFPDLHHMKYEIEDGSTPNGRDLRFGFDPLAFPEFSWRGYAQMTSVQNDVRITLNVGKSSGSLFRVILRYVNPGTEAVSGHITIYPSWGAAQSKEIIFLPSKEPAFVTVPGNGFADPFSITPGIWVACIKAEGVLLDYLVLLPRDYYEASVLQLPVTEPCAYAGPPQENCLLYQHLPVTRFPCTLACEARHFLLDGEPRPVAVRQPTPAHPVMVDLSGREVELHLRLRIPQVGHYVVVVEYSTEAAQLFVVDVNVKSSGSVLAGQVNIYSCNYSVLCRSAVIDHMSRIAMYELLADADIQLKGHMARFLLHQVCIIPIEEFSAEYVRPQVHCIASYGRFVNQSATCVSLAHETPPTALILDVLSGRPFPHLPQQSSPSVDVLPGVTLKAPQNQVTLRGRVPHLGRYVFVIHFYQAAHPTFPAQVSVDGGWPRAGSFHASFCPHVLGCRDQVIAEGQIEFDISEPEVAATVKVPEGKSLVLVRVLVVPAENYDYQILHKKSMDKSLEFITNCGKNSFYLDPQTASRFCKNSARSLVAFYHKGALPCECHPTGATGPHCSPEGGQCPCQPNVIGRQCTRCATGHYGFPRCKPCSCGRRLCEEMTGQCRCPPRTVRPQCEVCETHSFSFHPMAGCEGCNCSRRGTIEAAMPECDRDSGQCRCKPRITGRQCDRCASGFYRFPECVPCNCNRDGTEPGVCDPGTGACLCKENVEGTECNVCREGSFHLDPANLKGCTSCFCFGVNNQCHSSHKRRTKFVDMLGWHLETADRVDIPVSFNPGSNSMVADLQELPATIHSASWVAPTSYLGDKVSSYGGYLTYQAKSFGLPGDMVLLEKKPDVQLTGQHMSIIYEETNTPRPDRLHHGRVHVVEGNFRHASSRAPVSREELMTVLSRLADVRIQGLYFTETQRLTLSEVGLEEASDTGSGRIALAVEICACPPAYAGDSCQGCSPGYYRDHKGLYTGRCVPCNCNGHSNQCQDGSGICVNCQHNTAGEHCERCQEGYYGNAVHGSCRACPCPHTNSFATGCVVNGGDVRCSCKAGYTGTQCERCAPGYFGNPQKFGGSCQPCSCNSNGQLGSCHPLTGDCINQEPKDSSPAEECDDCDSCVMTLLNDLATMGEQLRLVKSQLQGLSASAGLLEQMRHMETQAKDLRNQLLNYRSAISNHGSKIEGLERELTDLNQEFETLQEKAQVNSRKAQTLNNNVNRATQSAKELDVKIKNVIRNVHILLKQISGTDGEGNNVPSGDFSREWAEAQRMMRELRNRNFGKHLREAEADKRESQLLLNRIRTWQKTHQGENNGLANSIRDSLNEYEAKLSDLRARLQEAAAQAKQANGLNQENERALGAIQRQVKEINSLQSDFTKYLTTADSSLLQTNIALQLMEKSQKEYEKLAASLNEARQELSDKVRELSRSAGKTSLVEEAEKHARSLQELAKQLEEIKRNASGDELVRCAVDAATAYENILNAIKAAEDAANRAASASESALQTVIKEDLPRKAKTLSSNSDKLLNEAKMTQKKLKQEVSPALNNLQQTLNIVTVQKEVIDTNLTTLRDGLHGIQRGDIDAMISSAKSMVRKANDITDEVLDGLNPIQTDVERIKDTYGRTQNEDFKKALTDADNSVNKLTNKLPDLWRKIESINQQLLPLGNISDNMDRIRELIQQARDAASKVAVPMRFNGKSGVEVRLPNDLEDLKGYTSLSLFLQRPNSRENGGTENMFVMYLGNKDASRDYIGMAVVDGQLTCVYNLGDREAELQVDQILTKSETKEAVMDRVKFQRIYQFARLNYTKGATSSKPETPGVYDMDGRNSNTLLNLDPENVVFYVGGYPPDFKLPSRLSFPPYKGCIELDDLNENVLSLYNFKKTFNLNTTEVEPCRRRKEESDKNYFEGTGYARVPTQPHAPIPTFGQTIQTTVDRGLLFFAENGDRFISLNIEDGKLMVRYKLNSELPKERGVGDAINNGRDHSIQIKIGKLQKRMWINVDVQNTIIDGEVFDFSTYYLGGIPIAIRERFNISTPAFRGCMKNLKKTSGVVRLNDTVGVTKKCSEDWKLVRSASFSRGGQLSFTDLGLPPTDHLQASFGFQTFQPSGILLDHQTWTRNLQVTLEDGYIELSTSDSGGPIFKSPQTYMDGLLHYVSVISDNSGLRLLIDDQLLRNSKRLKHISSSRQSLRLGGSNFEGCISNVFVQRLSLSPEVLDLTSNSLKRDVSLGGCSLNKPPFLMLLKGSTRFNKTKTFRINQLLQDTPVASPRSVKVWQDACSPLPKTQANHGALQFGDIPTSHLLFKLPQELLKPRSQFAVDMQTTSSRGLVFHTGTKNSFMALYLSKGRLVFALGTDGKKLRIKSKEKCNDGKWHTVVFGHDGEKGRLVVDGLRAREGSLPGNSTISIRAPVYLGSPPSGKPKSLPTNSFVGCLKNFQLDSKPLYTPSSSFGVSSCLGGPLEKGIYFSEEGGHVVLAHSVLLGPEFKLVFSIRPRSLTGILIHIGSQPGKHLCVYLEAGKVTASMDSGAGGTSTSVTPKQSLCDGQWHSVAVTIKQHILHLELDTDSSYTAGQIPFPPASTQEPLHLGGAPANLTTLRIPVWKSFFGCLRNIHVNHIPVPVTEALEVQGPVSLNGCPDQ
UniProt Q02388: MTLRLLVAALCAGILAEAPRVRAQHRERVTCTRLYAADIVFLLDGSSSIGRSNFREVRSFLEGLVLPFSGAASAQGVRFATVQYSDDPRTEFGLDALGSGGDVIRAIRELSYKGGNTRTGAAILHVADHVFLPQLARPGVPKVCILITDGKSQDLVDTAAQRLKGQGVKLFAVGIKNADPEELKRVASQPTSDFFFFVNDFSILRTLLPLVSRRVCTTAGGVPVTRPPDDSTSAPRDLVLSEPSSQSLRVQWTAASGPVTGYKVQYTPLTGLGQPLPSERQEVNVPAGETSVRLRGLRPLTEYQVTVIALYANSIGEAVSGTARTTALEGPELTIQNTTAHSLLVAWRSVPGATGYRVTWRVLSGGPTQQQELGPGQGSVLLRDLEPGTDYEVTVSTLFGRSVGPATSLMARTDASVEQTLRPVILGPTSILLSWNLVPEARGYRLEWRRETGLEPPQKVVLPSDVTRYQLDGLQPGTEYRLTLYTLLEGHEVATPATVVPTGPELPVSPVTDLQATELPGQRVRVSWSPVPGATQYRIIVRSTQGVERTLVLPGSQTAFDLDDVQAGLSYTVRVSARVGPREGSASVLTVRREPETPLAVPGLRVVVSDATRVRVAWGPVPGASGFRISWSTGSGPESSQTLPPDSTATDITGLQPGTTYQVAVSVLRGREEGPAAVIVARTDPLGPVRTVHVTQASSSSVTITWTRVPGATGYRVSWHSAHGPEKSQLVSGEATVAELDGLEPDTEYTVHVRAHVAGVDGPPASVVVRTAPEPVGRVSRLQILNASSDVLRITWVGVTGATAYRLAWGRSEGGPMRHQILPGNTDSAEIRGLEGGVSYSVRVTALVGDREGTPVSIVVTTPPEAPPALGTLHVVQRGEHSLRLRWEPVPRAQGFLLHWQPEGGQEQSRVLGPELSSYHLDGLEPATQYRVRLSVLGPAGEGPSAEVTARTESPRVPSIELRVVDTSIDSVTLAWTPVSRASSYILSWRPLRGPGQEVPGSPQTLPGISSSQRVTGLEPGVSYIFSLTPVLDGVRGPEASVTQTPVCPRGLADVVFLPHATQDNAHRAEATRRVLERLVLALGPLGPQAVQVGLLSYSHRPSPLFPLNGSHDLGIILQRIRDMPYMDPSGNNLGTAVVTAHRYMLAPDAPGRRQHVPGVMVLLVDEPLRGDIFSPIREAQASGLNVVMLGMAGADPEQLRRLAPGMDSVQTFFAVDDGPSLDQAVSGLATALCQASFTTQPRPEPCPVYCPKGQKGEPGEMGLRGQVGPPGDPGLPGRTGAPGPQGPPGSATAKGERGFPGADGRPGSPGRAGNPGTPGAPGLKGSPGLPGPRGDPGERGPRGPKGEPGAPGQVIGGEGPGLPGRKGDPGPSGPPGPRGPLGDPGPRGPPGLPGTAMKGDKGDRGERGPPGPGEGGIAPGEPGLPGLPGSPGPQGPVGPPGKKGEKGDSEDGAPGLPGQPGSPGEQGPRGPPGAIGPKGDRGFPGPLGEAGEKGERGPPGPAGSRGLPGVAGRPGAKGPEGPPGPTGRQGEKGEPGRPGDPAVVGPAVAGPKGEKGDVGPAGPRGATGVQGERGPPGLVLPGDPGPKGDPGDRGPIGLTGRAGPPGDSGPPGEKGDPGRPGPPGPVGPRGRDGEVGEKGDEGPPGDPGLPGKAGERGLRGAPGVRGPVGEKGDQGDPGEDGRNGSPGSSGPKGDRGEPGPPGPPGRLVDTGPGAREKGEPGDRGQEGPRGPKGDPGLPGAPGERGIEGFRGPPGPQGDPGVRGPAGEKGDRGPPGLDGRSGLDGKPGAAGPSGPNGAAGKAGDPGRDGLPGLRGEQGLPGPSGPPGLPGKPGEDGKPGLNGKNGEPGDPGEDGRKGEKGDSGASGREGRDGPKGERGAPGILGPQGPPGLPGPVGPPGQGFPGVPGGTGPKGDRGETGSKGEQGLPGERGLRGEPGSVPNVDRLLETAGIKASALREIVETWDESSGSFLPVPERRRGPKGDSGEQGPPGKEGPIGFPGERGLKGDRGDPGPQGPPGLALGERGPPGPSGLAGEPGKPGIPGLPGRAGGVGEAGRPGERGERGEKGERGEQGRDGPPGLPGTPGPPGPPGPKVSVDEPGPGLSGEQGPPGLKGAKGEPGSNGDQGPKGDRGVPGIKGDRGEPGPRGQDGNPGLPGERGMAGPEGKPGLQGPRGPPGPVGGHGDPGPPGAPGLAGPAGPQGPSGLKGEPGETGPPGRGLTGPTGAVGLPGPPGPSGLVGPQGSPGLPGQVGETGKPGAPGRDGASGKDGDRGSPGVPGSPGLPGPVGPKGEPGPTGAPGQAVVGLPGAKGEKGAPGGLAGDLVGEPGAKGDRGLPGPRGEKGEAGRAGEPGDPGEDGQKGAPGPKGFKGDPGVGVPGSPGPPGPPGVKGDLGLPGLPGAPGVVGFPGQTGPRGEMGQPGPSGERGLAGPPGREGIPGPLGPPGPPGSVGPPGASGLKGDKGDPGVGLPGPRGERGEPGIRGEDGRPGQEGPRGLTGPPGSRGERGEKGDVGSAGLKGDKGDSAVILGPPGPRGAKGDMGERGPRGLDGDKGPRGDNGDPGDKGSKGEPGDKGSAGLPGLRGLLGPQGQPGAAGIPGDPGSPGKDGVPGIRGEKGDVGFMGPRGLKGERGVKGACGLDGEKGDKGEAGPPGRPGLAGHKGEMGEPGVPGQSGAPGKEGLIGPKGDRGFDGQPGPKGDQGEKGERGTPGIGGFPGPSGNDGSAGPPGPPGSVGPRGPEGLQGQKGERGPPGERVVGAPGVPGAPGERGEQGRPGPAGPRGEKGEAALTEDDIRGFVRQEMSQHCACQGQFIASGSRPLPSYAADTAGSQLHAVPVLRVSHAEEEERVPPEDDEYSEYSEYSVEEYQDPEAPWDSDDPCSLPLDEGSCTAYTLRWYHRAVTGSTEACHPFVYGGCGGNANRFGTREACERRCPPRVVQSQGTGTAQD

Columns and labels:
Laminin 332 [1] = biological target: Laminin 332 (UniProt Q16787); assay: ELISA, Lam332-coated wells, bound C7 detected with anti-NC1 antibody (TR9 = HA-tagged C7)
Laminin 332 [2] = biological target: Laminin 332 (UniProt Q16787); assay: ELISA, Lam332-coated wells, supernatants of TR9 (HA-tagged C7), fNC1 detection, OD450
Laminin 332 [3] = biological target: Laminin 332 (UniProt Q16787); assay: ELISA, Lam332-coated wells, supernatants
Laminin 332 [4] = biological target: Laminin 332 (UniProt Q16787); assay: ELISA, Lam332-coated wells, supernatants of TR11, TR12.1, TR13, α-fNC1 detection, OD450
Laminin 332 [5] = biological target: Laminin 332 (UniProt Q16787); assay: ELISA, Lam332-coated wells, supernatants of TR8, TR10, ER1, fNC1 detection, OD450
Laminin 332 [6] = biological target: Laminin 332 (UniProt Q16787); assay: ELISA, Lam332- or BSA-coated wells, OD450; COL7 purified from CHO-DG44 cells
Laminin 332 [7] = biological target: Laminin 332 (UniProt Q16787); assay: ELISA, Lam332-coated wells, supernatants of TR11, TR12.1, TR13
Laminin 332 [8] = biological target: Laminin 332 (UniProt Q16787); assay: ELISA, Lam332- or BSA-coated wells, TR8 supernatants, NC1-specific antibody + HRP secondary, OD450
Laminin 332 [9] = biological target: Laminin 332 (UniProt Q16787); assay: ELISA, Lam332-coated wells, bound C7 detected with anti-NC1 antibody
Laminin 332 [10] = biological target: Laminin 332 (UniProt Q16787); assay: ELISA, Lam332- or BSA-coated wells, conditioned supernatants (INXN-2002)

Measured: binding

HA-tagged C7 expressed by TR9 HA-GM-HDFs (LV-HA-COL7) (from UniProt Q02388 17-2944)
binds: Laminin 332 [1] | Laminin 332 [2] | Laminin 332 [3]

Type VII collagen (C7) (from UniProt Q02388 17-2944)
not listed: Laminin 332 [1] | Laminin 332 [2]
binds: all other assays above
